Source: PubChem BioAssay AID504764 (Drosophila RNAi Screening Center, 2011)

Screen: 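Genome-wide screen for regulators of Notch-driven gene expression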 (primary screen)
System: Drosophila Kc167 cells
Knock-down reagent: long dsRNA against Drosophila genes
Timing: about 5 days (4 days dsRNA, then 24 h after transfection)
Challenge: transfection of constitutively active membrane-tethered Notch lacking the extracellular domain, read 24 h later
Detection: 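Firefly luciferase from an E(spl)m3 reporter with active Notch, plus control-promoter and uninduced reporter wells for normalisation; unnormalised counts, duplicate wells a and b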
Reading the numbers: induced reporter light, run 1, well a and induced reporter light, run 1, well b: higher = more light from the Notch target reporter with active Notch; control promoter light, run 1, well a and control promoter light, run 1, well b: higher = more light from the viral control promoter (cell number, transfection, viability); uninduced reporter light, run 1, well a: higher = more light from the Notch target reporter without active Notch
Active means: 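Hit if the duplicate-averaged log2 ratio of induced to control-promoter light gives a plate-wise z beyond ±2, or induced to uninduced beyond ±1.8; weak-control or discordant-duplicate wells dropped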
Calls: active = modifier hit (raised or lowered Notch signal); inactive = not a hit
The deposit covers about 22,000 reagents; below is a random part of those that have a named target and a result. In the full data, 403 (1.9%) were called active. 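Unnormalised raw counts per well; ratio z-scores behind the hit calls and whether each hit raises or lowers signal are not deposited.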 Entries without a mark were called inactive. Not stated in the record: the amount of reagent.

Patj [DRSC08712] gave induced reporter light, run 1, well a = 1.32e5 (active); induced reporter light, run 1, well b = 1.52e5; control promoter light, run 1, well a = 1.98e5; control promoter light, run 1, well b = 1.46e5; uninduced reporter light, run 1, well a = 8680. CG15449 [DRSC20521] gave induced reporter light, run 1, well a = 96435; induced reporter light, run 1, well b = 92235; control promoter light, run 1, well a = 1.02e5; control promoter light, run 1, well b = 1.23e5; uninduced reporter light, run 1, well a = 11865. With knock-down of Tsp2A (Tetraspanin 2A) [DRSC18584], the record shows induced reporter light, run 1, well a = 1.28e5; induced reporter light, run 1, well b = 1.31e5; control promoter light, run 1, well a = 2.30e5; control promoter light, run 1, well b = 2.40e5; uninduced reporter light, run 1, well a = 9360. Against CG13674 [DRSC10033] the deposit lists induced reporter light, run 1, well a = 1.14e5; induced reporter light, run 1, well b = 1.19e5; control promoter light, run 1, well a = 1.30e5; control promoter light, run 1, well b = 99740; uninduced reporter light, run 1, well a = 6890. Knock-down of CG11898 [DRSC14432] resulted in: induced reporter light, run 1, well a = 1.21e5; induced reporter light, run 1, well b = 1.28e5; control promoter light, run 1, well a = 1.48e5; control promoter light, run 1, well b = 1.43e5; uninduced reporter light, run 1, well a = 9660. Against PyK (Pyruvate kinase) [DRSC16806] the deposit lists induced reporter light, run 1, well a = 1.63e5; induced reporter light, run 1, well b = 1.39e5; control promoter light, run 1, well a = 1.55e5; control promoter light, run 1, well b = 1.73e5; uninduced reporter light, run 1, well a = 10600.

Rpn6 (Regulatory particle non-ATPase 6) [DRSC07541] scored induced reporter light, run 1, well a = 5860; induced reporter light, run 1, well b = 5885; control promoter light, run 1, well a = 4365; control promoter light, run 1, well b = 4410; uninduced reporter light, run 1, well a = 470. Knock-down of ATPsynbetaL (ATP synthase, beta subunit-like) [DRSC10503] resulted in: induced reporter light, run 1, well a = 1.37e5; induced reporter light, run 1, well b = 1.79e5; control promoter light, run 1, well a = 1.83e5; control promoter light, run 1, well b = 1.40e5; uninduced reporter light, run 1, well a = 9300. For CG8858 [DRSC07290], the values are induced reporter light, run 1, well a = 1.07e5; induced reporter light, run 1, well b = 1.15e5; control promoter light, run 1, well a = 1.72e5; control promoter light, run 1, well b = 1.71e5; uninduced reporter light, run 1, well a = 12065. For Cyp6a23 (Cytochrome P450 6a23) [DRSC07383], the values are induced reporter light, run 1, well a = 93860; induced reporter light, run 1, well b = 1.16e5; control promoter light, run 1, well a = 1.39e5; control promoter light, run 1, well b = 1.28e5; uninduced reporter light, run 1, well a = 10700. Depletion of AOX4 (Aldehyde oxidase 4) [DRSC15337] resulted in: induced reporter light, run 1, well a = 2.33e5; induced reporter light, run 1, well b = 2.43e5; control promoter light, run 1, well a = 2.15e5; control promoter light, run 1, well b = 2.01e5; uninduced reporter light, run 1, well a = 15330. CG6324 [DRSC19985] scored induced reporter light, run 1, well a = 72185; induced reporter light, run 1, well b = 80570; control promoter light, run 1, well a = 1.06e5; control promoter light, run 1, well b = 1.08e5; uninduced reporter light, run 1, well a = 11870.

Records listed so far called active (1):
Patj [DRSC08712] | induced reporter light, run 1, well a: 1.32e5 (active); induced reporter light, run 1, well b: 1.52e5; control promoter light, run 1, well a: 1.98e5; control promoter light, run 1, well b: 1.46e5; uninduced reporter light, run 1, well a: 8680
